{
  "source": "patent US20190225941A1",
  "about": "“MODULATION OF FUNCTION OF IMMUNE EFFECTOR CELLS” (OSLO UNIVERSITETSSYKEHUS HF, priority 2016, published 2019)",
  "tested_on": "NK cells",
  "experiment": "Granzyme B expression by flow cytometry after IL-15 or IL-21 stimulation with or without signalling inhibitors",
  "assay_type": "cell-based, human",
  "source_text": "Isolated PBMC were stained for flow cytometric analysis using an appropriate combination of the following antibodies, followed by the name of the clone in brackets: CD14-V500 (M5E2), CD19-V500 (HIB19), CD3-V500 (UCHT1), CD56 ECD (N901) CD57-PB (HCD57), CD57 purified (TB01), anti-mouse-IgM-EF650 (II/41), NKG2A-PE, APC or APC.AF750 (Z199), CD16-BV785 (3G8), KIR2DL3-FITC, KIR2DL1-APC or APC-Vio770 (REA284), KIR3DL1-AF700 or BV421 (D×9), KIR2DS4-QD585 (1847), KIR3DL2-biotin (D×31), KIR2DL2/L3/S2-PE.Cy5.5 (GL183), KIR2DL1/S1-PE.Cy7 (EB6) or PE-Vio770 (11 PB6). Dead cells were labelled using live/dead aqua (Life technologies). Biotin-conjugated antibodies were visualized using streptavidin-Qdot 585 or 605 (Life technologies). After surface staining, cells were fixed and permeabilized using a fixation/permeabilization kit (BD Bioscience Cytofix/Cytoperm) prior to intracellular staining with anti-granzyme B-A700 (GB11). Samples were acquired using an LSRII flow cytometer (Becton Dickinson) and data was analysed using FlowJo V10.0.8 (TreeStar).",
  "note": "For at least one compound, name, drawing or mass did not settle the structure.",
  "data": [
    {"smiles": "O=c1[nH]c2ccccc2n1C1CCN(CCCC(c2ccc(F)cc2)c2ccc(F)cc2)CC1", "note": "[Pimozide]", "values": [
      {"measurement": "cytokine-induced increase in granzyme B", "setting": "24 h IL-15 or IL-21, self- and non-self-specific NK cells", "result": "reversed the cytokine-induced increase in granzyme B"},
      {"measurement": "pre-existing constitutive levels of granzyme B", "setting": "before cytokine stimulation, FIG. 6", "result": "did not further reduce"}
    ]}
  ]
}
